# Reference: PubChem BioAssay (EPA / NIEHS)
# Sequences of proteins named here, by UniProt entry; tags and fusion partners are left off. A change or cut given only in a name is not applied to a line headed by its entry.
# UniProt P60484: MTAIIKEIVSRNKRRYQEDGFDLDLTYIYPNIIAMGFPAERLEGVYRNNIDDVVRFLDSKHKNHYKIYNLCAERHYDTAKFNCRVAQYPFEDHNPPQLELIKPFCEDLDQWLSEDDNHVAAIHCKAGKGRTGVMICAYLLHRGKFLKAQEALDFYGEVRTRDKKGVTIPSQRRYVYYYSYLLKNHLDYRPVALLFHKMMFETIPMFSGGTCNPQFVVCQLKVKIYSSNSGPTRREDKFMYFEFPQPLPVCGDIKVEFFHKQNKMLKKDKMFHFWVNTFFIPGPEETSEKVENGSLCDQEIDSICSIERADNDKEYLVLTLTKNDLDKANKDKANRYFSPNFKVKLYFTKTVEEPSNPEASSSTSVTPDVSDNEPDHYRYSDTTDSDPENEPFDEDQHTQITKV
# UniProt P17706: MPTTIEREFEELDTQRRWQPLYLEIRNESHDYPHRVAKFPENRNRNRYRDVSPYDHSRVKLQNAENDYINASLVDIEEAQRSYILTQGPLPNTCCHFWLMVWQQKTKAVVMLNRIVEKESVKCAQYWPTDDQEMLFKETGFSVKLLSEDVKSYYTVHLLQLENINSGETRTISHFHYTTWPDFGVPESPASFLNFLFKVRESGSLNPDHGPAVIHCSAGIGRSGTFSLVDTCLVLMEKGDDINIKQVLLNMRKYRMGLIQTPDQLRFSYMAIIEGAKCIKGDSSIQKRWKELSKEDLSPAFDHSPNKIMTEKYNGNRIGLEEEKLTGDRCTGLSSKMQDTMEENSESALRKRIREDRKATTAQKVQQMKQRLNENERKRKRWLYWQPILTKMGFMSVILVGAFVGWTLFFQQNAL
# UniProt P08575: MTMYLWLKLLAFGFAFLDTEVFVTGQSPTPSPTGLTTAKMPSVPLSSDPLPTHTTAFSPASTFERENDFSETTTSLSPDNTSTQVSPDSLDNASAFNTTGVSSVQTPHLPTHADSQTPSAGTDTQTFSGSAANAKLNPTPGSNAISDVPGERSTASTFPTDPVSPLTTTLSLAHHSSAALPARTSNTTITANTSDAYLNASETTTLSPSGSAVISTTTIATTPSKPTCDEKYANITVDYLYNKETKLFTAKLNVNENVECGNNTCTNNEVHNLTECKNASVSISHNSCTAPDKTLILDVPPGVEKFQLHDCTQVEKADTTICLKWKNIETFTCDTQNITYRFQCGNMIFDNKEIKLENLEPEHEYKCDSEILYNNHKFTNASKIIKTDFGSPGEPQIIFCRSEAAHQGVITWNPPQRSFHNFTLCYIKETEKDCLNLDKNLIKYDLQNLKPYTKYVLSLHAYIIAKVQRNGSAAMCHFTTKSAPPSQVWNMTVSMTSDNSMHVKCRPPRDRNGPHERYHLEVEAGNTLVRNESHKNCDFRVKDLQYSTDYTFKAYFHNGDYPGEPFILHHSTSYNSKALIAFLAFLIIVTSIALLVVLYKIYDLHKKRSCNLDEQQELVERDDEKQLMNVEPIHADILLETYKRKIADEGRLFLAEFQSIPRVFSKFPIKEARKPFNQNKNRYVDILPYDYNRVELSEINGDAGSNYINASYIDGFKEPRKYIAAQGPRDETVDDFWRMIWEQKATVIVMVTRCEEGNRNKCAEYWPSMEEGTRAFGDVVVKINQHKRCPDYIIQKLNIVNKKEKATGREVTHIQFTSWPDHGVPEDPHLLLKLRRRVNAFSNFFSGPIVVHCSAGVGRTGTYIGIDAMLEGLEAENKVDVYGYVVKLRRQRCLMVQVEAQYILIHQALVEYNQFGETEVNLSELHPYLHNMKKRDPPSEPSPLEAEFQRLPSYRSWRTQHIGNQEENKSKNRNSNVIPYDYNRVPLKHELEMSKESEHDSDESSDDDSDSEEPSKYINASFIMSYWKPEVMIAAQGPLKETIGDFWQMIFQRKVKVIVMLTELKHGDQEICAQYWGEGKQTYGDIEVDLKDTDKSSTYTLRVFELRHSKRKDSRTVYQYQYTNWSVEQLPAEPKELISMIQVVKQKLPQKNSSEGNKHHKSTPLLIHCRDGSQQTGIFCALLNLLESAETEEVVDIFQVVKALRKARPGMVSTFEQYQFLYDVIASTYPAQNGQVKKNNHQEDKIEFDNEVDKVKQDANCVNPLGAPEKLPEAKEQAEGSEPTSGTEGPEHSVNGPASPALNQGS
# UniProt P37136: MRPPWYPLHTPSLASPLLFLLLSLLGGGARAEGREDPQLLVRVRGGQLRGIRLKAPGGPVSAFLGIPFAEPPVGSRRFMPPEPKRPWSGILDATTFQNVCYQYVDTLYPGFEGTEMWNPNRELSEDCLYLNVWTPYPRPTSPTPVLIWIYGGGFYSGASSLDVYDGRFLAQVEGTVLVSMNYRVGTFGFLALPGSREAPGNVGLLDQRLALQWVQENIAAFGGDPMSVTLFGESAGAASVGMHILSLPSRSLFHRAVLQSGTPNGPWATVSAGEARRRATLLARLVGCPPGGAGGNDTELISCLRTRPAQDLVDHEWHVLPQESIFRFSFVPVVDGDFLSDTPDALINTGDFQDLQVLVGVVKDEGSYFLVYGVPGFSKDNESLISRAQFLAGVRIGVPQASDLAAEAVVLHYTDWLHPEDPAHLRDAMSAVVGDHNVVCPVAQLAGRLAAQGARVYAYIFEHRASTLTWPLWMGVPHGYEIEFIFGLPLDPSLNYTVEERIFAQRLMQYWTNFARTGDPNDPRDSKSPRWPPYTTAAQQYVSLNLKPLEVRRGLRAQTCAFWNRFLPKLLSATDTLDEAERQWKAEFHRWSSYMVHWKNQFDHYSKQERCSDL
# The inconclusive results got no clear call from the source; some entries with a clear call stand among them for comparison. Where the call is inconclusive, the potency comes from a doubtful curve fit. Activity calls are given as the source filed them. How the source made its calls: active means hit-call score of the fitted dose curve at least 0.9, where 1 is the maximum; inconclusive means response in the unintended direction; inactive means score below 0.9.
# Target: human Phosphatase and Tensin Homolog (PTEN), PTEN (gene 5728) (UniProt P60484)
# Assay: NVS_ENZ_hPTEN: NovaScreen (NVS) Enzymatic Assay for human Phosphatase and Tensin Homolog (PTEN) (AID 2283203)
# Method in brief: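 Loss of fluorescent product signal after mobility-shift separation reports PTEN activity, recombinant human enzyme, 1 h after compound addition. Single 25 uM duplicate screen, then concentration-response on actives; DMSO baseline.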
Structure (SMILES),AC50,outcome
CCOC(=O)CC(C)O (stereo not drawn),inconclusive: 0.28 µM,
Nc1ccc(Oc2cccc(Oc3ccc(N)cc3)c2)cc1,inconclusive: 0.626 µM,
CN(C[C@@H](CC[N+]12CCC(C3CCCCC3)(CC1)CC2)c1ccc(Cl)c(Cl)c1)C(=O)c1cc(C(F)(F)F)cc(C(F)(F)F)c1,active: 16.2 µM,
CCCCCCCCN(C)C,inconclusive: 6.11 µM,
CCCCCCCCCC,,inactive
O=C1CCC(=O)N1,inconclusive: 1.05 µM,
CCCCCCCC(=O)O,inconclusive: 0.0639 µM,

# Entries of single compounds, quoted from the list:
# `CCCCCCCCCC` is listed with outcome: inactive
# `Nc1ccc(Oc2cccc(Oc3ccc(N)cc3)c2)cc1` is listed with AC50: inconclusive: 0.626 µM

# Target: human Protein Tyrosine Phosphatase Non-receptor Type 2 (PTPN2), PTPN2 (gene 5771) (UniProt P17706)
# Assay: NVS_ENZ_hPTPN2: NovaScreen (NVS) Enzymatic Assay for human Protein Tyrosine Phosphatase Non-receptor Type 2 (PTPN2) (AID 2283207)
# Method in brief: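 Activity measured as fluorescence after mobility-shift separation of substrate and product, 1 h after compound. Duplicate single-point 25 uM primary testing, concentration series for actives; inhibition scored as signal loss relative to DMSO baseline.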
Structure (SMILES),AC50,outcome
O=C(O)c1ccc2c(c1)nc(C(=O)NC1CCN(C3CC3)CC1)n2Cc1cc(-c2ccc(Cl)s2)on1,inconclusive: 0.0557 µM,
COc1nc(C)nc(NC(=O)NS(=O)(=O)c2ccccc2OCCCl)n1,,inactive
OC[C@H]1O[C@@H]2O[C@H]3[C@H](O)[C@@H](O)[C@@H](O[C@H]4[C@H](O)[C@@H](O)[C@@H](O[C@H]5[C@H](O)[C@@H](O)[C@@H](O[C@H]6[C@H](O)[C@@H](O)[C@@H](O[C@H]7[C@H](O)[C@@H](O)[C@@H](O[C@H]1[C@H](O)[C@H]2O)O[C@@H]7CO)O[C@@H]6CO)O[C@@H]5CO)O[C@@H]4CO)O[C@@H]3CO,,inactive

# Target: human Protein Tyrosine Phosphatase Receptor Type C (PTPRC), PTPRC (gene 5788) (UniProt P08575)
# Assay: NVS_ENZ_hPTPRC: NovaScreen (NVS) Enzymatic Assay for human Protein Tyrosine Phosphatase Receptor Type C (PTPRC) (AID 2283212)
# Method in brief: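 Absorbance-based phosphatase activity of human PTPRC protein extracted from yeast was measured 1 h post-dosing. Compounds first tested at 25 uM in duplicate, then those passing threshold in singleton concentration series to 50 uM.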
Structure (SMILES),AC50,outcome
Cc1c(C(=O)O)c(O)cc2c1C(=O)c1c(O)c([C@@H]3O[C@H](CO)[C@@H](O)[C@H](O)[C@H]3O)c(O)c(O)c1C2=O,active: 11.7 µM,
CCCCCCC(=O)OCC,,inactive
CCCCCCOC(=O)CC(CC(=O)OCCCCCC)(OC(=O)CCC)C(=O)OCCCCCC,inconclusive: 25 µM,
CC1=C(C)S(=O)(=O)CCS1(=O)=O,inconclusive: 0.0736 µM,

# Target: rat Acetylcholinesterase (AChE), Ache (gene 83817) (UniProt P37136)
# Assay: NVS_ENZ_rAChE: NovaScreen (NVS) Enzymatic Assay for rat Acetylcholinesterase (AChE) (AID 2283233)
# Method in brief: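 Compounds first screened at 25 uM in duplicate, then those passing threshold tested in concentration series up to 50 uM, against AChE from rat brain membranes. Enzyme activity read by absorbance at 0.33 h; inhibition scored versus DMSO.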
Structure (SMILES),outcome,AC50
CCOC(=O)C1=NOC(c2ccccc2)(c2ccccc2)C1,inactive,
Cc1cc(CCN2CCN(c3nsc4ccccc34)CC2)cc2c1NC(=O)CC2(C)C,inactive,
Cn1cnc2c1c(=O)[nH]c(=O)n2C,inactive,
CNCc1cc(F)ccc1Oc1ccc(Cl)c(Cl)c1,,inconclusive: 25 µM
OB(O)O,,inconclusive: 25 µM
c1ccc(Nc2ccccc2)cc1,,inconclusive: 6.51 µM

# Tested on: rat Monoamine Oxidase, MAO-A, Peripheral (MAOAP), gene 29253
# Assay: NVS_ENZ_rMAOAP: NovaScreen (NVS) Enzymatic Assay for rat Monoamine Oxidase, MAO-A, Peripheral (MAOAP) (AID 2283237)
# Method in brief: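 Scintillation counting tracked MAO-A activity in a cell-free rat liver mitochondrial membrane prep, read 1.17 hours after compound addition. Single-point duplicate testing at 25 uM preceded concentration-response follow-up; activity was fitted relative to DMSO.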
Structure (SMILES),outcome,AC50
Cc1cc(CCN2CCN(c3nsc4ccccc34)CC2)cc2c1NC(=O)CC2(C)C,inactive,
Cn1cnc2c1c(=O)[nH]c(=O)n2C,,inconclusive: 0.0468 µM
Cc1cc(C)c(O)c(C)c1,,inconclusive: 0.0394 µM
Nc1nc(N)c2nc(CNc3ccc(C(=O)N[C@@H](CCC(=O)O)C(=O)O)cc3)cnc2n1,,active: 38.7 µM
Cc1occc(=O)c1O,,inconclusive: 26 µM
CCCCCCCC=O,inactive,
Cc1c(C(=O)O)c(O)cc2c1C(=O)c1c(O)c([C@@H]3O[C@H](CO)[C@@H](O)[C@H](O)[C@H]3O)c(O)c(O)c1C2=O,inactive,
COCc1nnc(-c2ccc[n+]([O-])c2)n1-c1c(Cl)c(Cl)cc2[nH]c(=O)c(=O)[nH]c12,,inconclusive: 25 µM
Oc1ccccc1,,inconclusive: 6.08 µM
CCOC(=O)c1ccc(C2CCC(NC[C@H](O)COc3ccc(O)c(NS(C)(=O)=O)c3)CC2)cc1 (stereo partly drawn),,inconclusive: 15.5 µM
COc1ccc(S(=O)(=O)N2C(=O)[C@@](c3ccccc3OC)(N3C[C@H](O)C[C@H]3C(=O)N(C)C)c3cc(Cl)ccc32)c(OC)c1,,inconclusive: 0.051 µM
CCCCCCCCCC,,inconclusive: 45.8 µM
CCCOc1sc(C(=O)N2CCC(c3cc(CN)ccc3F)CC2)c(C)c1Br,,active: 2.6 µM
